# Experimental data published in the supplement of paper PMC8326762, “A Small Molecule Inhibitor of Pex3–Pex19 Interaction Disrupts Glycosome Biogenesis and Causes Lethality in Trypanosoma brucei” (Frontiers in Cell and Developmental Biology, 2021).
# Where a name gives a salt, the structure may show the parent alone. This is one part of the list. This is a noisy data set.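 Yeast growth was read as optical density at 600 nm. The two-hybrid strains grew without histidine, so growth needed the Pex3–Pex19 binding; a compound counted as trypanosome-selective if it cut growth of the trypanosome-pair strain by more than 65% and the human-pair strain by less than 65%.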
# Key:
# [1] = system: Saccharomyces cerevisiae HF7c pdr5Δ; experiment: general growth inhibition of yeast HF7c pdr5Δ in -Leu -Trp medium, relative to DMSO; higher = stronger general growth inhibition; conditions: 100 µM; 24 h
# [2] = system: human PEX3-PEX19 interaction (yeast two-hybrid); experiment: growth inhibition of yeast two-hybrid strain reporting HsPex3-HsPex19 interaction, relative to DMSO; higher = stronger inhibition of human Pex3-Pex19 interaction / growth; conditions: 100 µM; 24 h; 3-aminotriazole 10 mM
# [3] = system: T. brucei Pex3-Pex19 interaction (yeast two-hybrid); experiment: growth inhibition of yeast two-hybrid strain reporting TbPex3-TbPex19 interaction, relative to DMSO; higher = stronger inhibition of T. brucei Pex3-Pex19 interaction / growth; conditions: 100 µM; 24 h
compound,measurement,setting,value
NCC(CP(=O)(O)O)c1ccc(Cl)cc1 (stereo not given) [Phaclofen],general growth inhibition,[1],18.1%
same,growth inhibition,[2],15.2%
same,growth inhibition,[3],41.1%
CC(=O)[C@H]1CC[C@H]2[C@@H]3CC[C@H]4C[C@H](O)CC[C@]4(C)[C@H]3CC[C@]12C [5alpha-Pregnan-3alpha-ol-20-one],general growth inhibition,[1],53.7%
same,growth inhibition,[2],38.7%
same,growth inhibition,[3],51.1%
C=C(C)[C@H]1Cc2c(ccc3c2O[C@@H]2COc4cc(OC)c(OC)cc4[C@@H]2C3=O)O1 [Rotenone],general growth inhibition,[1],25.8%
same,growth inhibition,[2],28.7%
same,growth inhibition,[3],36.4%
c1ccc(CCCN2CCN(CCOC(c3ccccc3)c3ccccc3)CC2)cc1,general growth inhibition,[1],9.94%
same,growth inhibition,[2],-11%
same,growth inhibition,[3],27.1%
NC(Cc1cc(O)c(O)cc1O)C(=O)O (racemic) [6-Hydroxy-DL-DOPA],general growth inhibition,[1],7.86%
same,growth inhibition,[2],0.794%
same,growth inhibition,[3],30.7%
C[N+](C)(C)CC#CCN1CCCC1=O [Oxotremorine methiodide],general growth inhibition,[1],16.1%
same,growth inhibition,[2],13.9%
same,growth inhibition,[3],40.8%
CC(C)N(CCC(C(N)=O)(c1ccccc1)c1ccccn1)C(C)C (stereo not given) [Disopyramide phosphate],general growth inhibition,[1],32.4%
same,growth inhibition,[2],32.2%
same,growth inhibition,[3],53.1%
NC(N)=NOCC[C@H](N)C(=O)O [L-Canavanine sulfate],general growth inhibition,[1],10.7%
same,growth inhibition,[2],8.18%
same,growth inhibition,[3],31.9%
CCN1C[C@]2(COC)[C@H](O)C[C@H](OC)[C@@]34[C@@H]5C[C@@]6(O)[C@H](OC(=O)c7ccccc7)[C@@H]5[C@@](OC(C)=O)([C@@H]([C@H](OC)[C@H]23)[C@@H]14)[C@@H](O)[C@@H]6OC [Aconitine],general growth inhibition,[1],48%
same,growth inhibition,[2],41.6%
same,growth inhibition,[3],63.6%
NC(=O)c1cc(N2CC2)c([N+](=O)[O-])cc1[N+](=O)[O-],general growth inhibition,[1],38%
same,growth inhibition,[2],42.7%
same,growth inhibition,[3],57%
C[C@@]12N[C@@H](Cc3ccccc31)c1ccccc12 [(-)-MK-801 hydrogen maleate],general growth inhibition,[1],36.2%
same,growth inhibition,[2],28%
same,growth inhibition,[3],56.4%
NCC(CC(=O)O)c1ccc(Cl)cc1 (racemic) [(±)-Baclofen],general growth inhibition,[1],30.9%
same,growth inhibition,[2],32.2%
same,growth inhibition,[3],58.6%
O=c1[nH]c2ccccc2n1CCCN1CCC(n2c(=O)[nH]c3cc(Cl)ccc32)CC1 [Domperidone],general growth inhibition,[1],33.2%
same,growth inhibition,[2],28.4%
same,growth inhibition,[3],62.4%
COC(=O)N1CCN(C(=O)Cc2ccc(Cl)c(Cl)c2)C(CN2CCCC2)C1 (stereo not given),general growth inhibition,[1],38.1%
same,growth inhibition,[2],38.7%
same,growth inhibition,[3],48.6%
C1CCc2nnnn2CC1 [Pentylenetetrazole],general growth inhibition,[1],51.6%
same,growth inhibition,[2],46.9%
same,growth inhibition,[3],57%
CC[C@@H](CO)NC(=O)[C@@H]1C=C2c3cccc4c3c(cn4C)C[C@H]2N(C)C1 [Methysergide maleate],general growth inhibition,[1],46.8%
same,growth inhibition,[2],45.7%
same,growth inhibition,[3],55.1%
N.N.[Cl][Pt][Cl] [Cisplatin],general growth inhibition,[1],35%
same,growth inhibition,[2],31.9%
same,growth inhibition,[3],73.4%
"CN1CC[C@@]2(C)c3cc(O)ccc3N(C)C12 (single isomer, unassigned; (-)) [(-)-Eseroline fumarate]",general growth inhibition,[1],10.8%
same,growth inhibition,[2],3.49%
same,growth inhibition,[3],25.7%
CC1=NN=C(c2ccc(N)cc2)c2cc3c(cc2C1)OCO3,general growth inhibition,[1],11%
same,growth inhibition,[2],-3.57%
same,growth inhibition,[3],24%
CCCN(CCC)[C@@H]1CCc2cccc(O)c2C1 [R-(+)-8-Hydroxy-DPAT hydrobromide],general growth inhibition,[1],1.91%
same,growth inhibition,[2],-4.69%
same,growth inhibition,[3],34.1%
N#Cc1ccc(N2CCN(C(=O)COc3ccc4[nH]cc(CCN)c4c3)CC2)cc1 [Donitriptan monohydrochloride],general growth inhibition,[1],23.9%
same,growth inhibition,[2],28.1%
same,growth inhibition,[3],50.7%
N=C(N)NN [Aminoguanidine hydrochloride],general growth inhibition,[1],45.3%
same,growth inhibition,[2],42.7%
same,growth inhibition,[3],67.9%
CN(C)C(=O)Oc1cccc([N+](C)(C)C)c1 [Neostigmine bromide],general growth inhibition,[1],47.5%
same,growth inhibition,[2],49.5%
same,growth inhibition,[3],65.1%
CC(Cc1ccc(O)cc1)NCC(O)c1cc(O)cc(O)c1 (stereo not given) [Fenoterol hydrobromide],general growth inhibition,[1],28.3%
same,growth inhibition,[2],28.8%
same,growth inhibition,[3],52.5%
CCn1cc(C(=O)O)c(=O)c2cc3c(cc21)OCO3 [Oxolinic acid],general growth inhibition,[1],12.6%
same,growth inhibition,[2],12.6%
same,growth inhibition,[3],35.4%
CC(=O)OCC1=C(C(=O)[O-])N2C(=O)[C@@H](NC(=O)CCC[C@@H](N)C(=O)[O-])[C@H]2SC1.[Zn+2] [Cephalosporin C zinc salt],general growth inhibition,[1],40.8%
same,growth inhibition,[2],41%
same,growth inhibition,[3],54.5%
NCCc1c[nH]c2ccccc12 [Tryptamine hydrochloride],general growth inhibition,[1],34.8%
same,growth inhibition,[2],34.8%
same,growth inhibition,[3],48.4%
S=C(NC1CCCCC1)N1CCC(c2cnc[nH]2)CC1 [Thioperamide maleate],general growth inhibition,[1],53.5%
same,growth inhibition,[2],57%
same,growth inhibition,[3],62.5%
NC(=O)CI [Iodoacetamide],general growth inhibition,[1],87.1%
same,growth inhibition,[2],81.7%
same,growth inhibition,[3],79.3%
C[C@@]12C(=O)OC(=O)[C@]1(C)[C@H]1CC[C@@H]2O1 [Cantharidin],general growth inhibition,[1],85.3%
same,growth inhibition,[2],75.6%
same,growth inhibition,[3],73.6%

# Taken from above for reference:
compound,measurement,setting,value
CCN1C[C@]2(COC)[C@H](O)C[C@H](OC)[C@@]34[C@@H]5C[C@@]6(O)[C@H](OC(=O)c7ccccc7)[C@@H]5[C@@](OC(C)=O)([C@@H]([C@H](OC)[C@H]23)[C@@H]14)[C@@H](O)[C@@H]6OC [Aconitine],general growth inhibition,[1],48%
same,growth inhibition,[2],41.6%
same,growth inhibition,[3],63.6%
NC(=O)c1cc(N2CC2)c([N+](=O)[O-])cc1[N+](=O)[O-],general growth inhibition,[1],38%
same,growth inhibition,[2],42.7%
